The whole screen tested about 52,000 sequences, of which about 210 (0.4%) were called active.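 Rule for the calls: active = gene whose silencing raises cell survival under the drug, median off-target-corrected z-score across its silencing RNAs 2 or more; inactive = the rest.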 The list shows a part of the results.

Among the data in PubChem BioAssay AID1347423 (Functional Genomics Laboratory (NCATS/FGL), 2020) are z-score values, retold here.

The nature of this assay: Resistance to Poly (ADP-Ribose) Polymerase inhibitor: Gene Identification via Genome-wide siRNA Screen. The settings on record: mouse BRCA2 R2336H ES cells, olaparib, CellTiter-Glo viability; stronger effect = higher value. The method in brief:
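Genome-wide siRNA screen (3 siRNAs/gene, 20 nM) in mouse ES cells carrying hypomorphic BRCA2 R2336H; olaparib 500 nM added 48 h post-transfection, CellTiter-Glo viability 72 h later. Normalized to plate-median negative control; MAD z-scores, gene median, seed-adjusted.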
Consider GGCCUUGAAUAGAAAAUGGTT against Olfr1055, for which the z-score was inactive: -2.38.

GGCAUUUGCACAGUUUAUGTT against Upp2: the z-score is inactive: 0.239.

As to GCAGAAUUGAAUAUUAAGCTT against Upk1b, the z-score is inactive: 0.851.

Consider “GCCUUGGCCGAGGUUAAUUTT against 6430402L03Rik”, for which the z-score is inactive: -0.487.

Consider GGAGUAAUGAUAAGCCCUCTT against Tex264, for which the z-score is inactive: -0.394.

As for CCCAAUGCUUGGUGCCUUUTT against C1qtnf2, the z-score was inactive: 0.717.

In the case of GAAGCACAACCUCGGCUUUTT against Mcpr1, the z-score is inactive: 0.252.

As for GGACUUGGAACAGAAAAAGTT against Asb8, the z-score was inactive: -0.937.

Turning to “CGGUUACUUUUGAAGCUUGTT against 4930415J21Rik”, the z-score is inactive: 0.78.

With CGUGCUGGUAACGGAAUUGTT against Ptger2, the z-score is inactive: -0.484.

“GGCACUAAUUUAGACAAAGTT against E230015L20Rik”: the z-score is inactive: -0.149.

“GGAUCAUGCAAACCAAAGCTT against 4930522H14Rik”: the z-score was inactive: -0.657.

Consider CGAUUCCUGGACCAUUGUUTT against Tm6sf1, for which the z-score was inactive: -2.72.

For CCAAAGAAGUUGACUUUUCTT against Rhpn2, the z-score is inactive: 0.262.

As for GGAAAGAAGUAUGCCCACATT against Acp5, the z-score is inactive: 2.84.

Turning to GGUUCUCCAGCAAGUGGAUTT against AV125803, the z-score is inactive: -0.0995.

Turning to CCAAGGUGAGGACUUUCCATT against Erp29, the z-score was inactive: -0.507.

With GGCAGUGUGUUAGAUUCUUTT against Cts3, the z-score was inactive: -0.339.

For the sequence CCUUUGUUCUGCUCUGUUUTT against Tas2r126, the z-score is inactive: 0.371.

As for GGCCAGUAAGACAGAUUAUTT against Rabl3, the z-score is inactive: -0.632.

As to “CCUGGUACCUCGAUUCCAUTT against 9230102I19Rik”, the z-score was inactive: -0.113.

With GUACCUCAUGGGCAAGUUCTT against Foxq1, the z-score is inactive: -0.437.

As to GGCCCAUUUUGGUGUGCAUTT against Hyal3, the z-score is inactive: -0.6.

As for CCUGAUUUGAAGAACAAAATT against Galnt11, the z-score was inactive: -0.0763.

Regarding “GGCUGUGACUUUUGAUCUATT against 2310042G06Rik”, the z-score is inactive: -0.719.

For “GGAGAGAUAAUCCAUAAUATT against 2700007P21Rik”, the z-score is inactive: -0.00113.

On to GCAAUUUGCUCAUCUCUAATT against Dcc, for which the z-score was inactive: -1.96.

Regarding GGUUUCAGACUCCAUGAGATT against Gyg1, the z-score was inactive: 0.522.

With GGGAAAAGUUUUAAAGAGCTT against Il31ra, the z-score is inactive: 0.947.

Consider GCAGAAAAAGGAAGGCCACTT against Xlr3b, for which the z-score was inactive: 0.727.

As for “CCGUGGUACCAUCAAUGACTT against 2310044P18Rik”, the z-score was inactive: 0.691.

GGCAGAGAGUCUACAUAUGTT against Bcar3: the z-score was inactive: -2.39.

As for GCGCAGUGAAUCAAAUGUUTT against Asrgl1, the z-score is inactive: -0.777.

As for “GCCAUAAAACAGAAUCUCATT against 4930563P21Rik”, the z-score is inactive: 0.642.

Regarding “CCGAAUAUCGAGUUCCCAATT against 9130012D09Rik”, the z-score is inactive: -0.782.

Regarding “GGGUUAUGGUAGAUUAUCUTT against A830007P12Rik”, the z-score is inactive: -0.954.

With GCCCAAGUAGCUCUACAGATT against Zbtb3, the z-score was inactive: -1.29.

On to GGCCUUUGAUGACUUCAUCTT against Cacna1h, for which the z-score is inactive: 1.37.

On to GGUUACUCCUUUUUCAAUGTT against Elf5, for which the z-score is inactive: -0.0212.

With GGCCUGAAGAAAAAAACCCTT against Gas6, the z-score is inactive: 1.22.

Consider CCCGGUCUACAGUUAUUCGTT against Hlxb9, for which the z-score was inactive: -1.42.

On to GCAGAUGCUUCGGUGAAAATT against Defb15, for which the z-score was inactive: -0.819.

For GCGGAAAGAAUCUUGGGAATT against Bcas1, the z-score is inactive: -1.99.

For the sequence CCCUCAUACAGAAUUAGUGTT against Zcchc14, the z-score was inactive: 0.0824.

With GGAAAAGACGGAGAGGCAUTT against Hey1, the z-score was inactive: 0.821.

For GGUCAUCAAGCAGUUUCGCTT against Coq7, the z-score is inactive: -0.395.

As to GGAAAAGGUUUAUUUUGCUTT against Mtmr6, the z-score was inactive: 0.602.

For GGUGUCCAACAAGCUCAAGTT against F8a, the z-score was inactive: -2.33.

In the case of GGGACUAGACUUCUUCGGATT against Ddx52, the z-score was inactive: -0.0893.

As for GGAUCUGUUCAGCAAGUCUTT against Cpne6, the z-score was inactive: 0.471.

As to GAACUACCUGUGUAAACCUTT against AA407659, the z-score is inactive: -0.0494.

In the case of GGGAUUGUUUCAAGACAAUTT against 2-Sep, the z-score was inactive: -0.782.

On to GGAAUAGGUCUAGCUGUUGTT against Olfr593, for which the z-score is inactive: 0.391.

With UCCUUUCUAAUAUCCUCCATT against Olfr912, the z-score was inactive: 2.09.

Take “CCCUCUAUCCUUAAACCAUTT against 0610007P14Rik”: the z-score was inactive: -2.21.

For GCUCUACUGCUUCCUUGUUTT against Olfr973, the z-score is inactive: -2.32.

With CCCAAGGUGAACAUAAUCUTT against Stard7, the z-score is inactive: -2.2.

Regarding “GGCCUUUCAAGAAGCCAAATT against C430004E15Rik”, the z-score was inactive: -0.175.

Consider “GGUCCAUUCGGUACAAAAATT against 4930452B06Rik”, for which the z-score is inactive: 0.295.

As for GGGUUAAUGACUAAAAUGATT against H13, the z-score is inactive: 0.715.

In the case of GGCUAUGAUGUUCACAAAUTT against Cog4, the z-score was inactive: 0.0137.

As to GGGACUUAGACACAGGAAGTT against Pcdhb15, the z-score was inactive: -2.46.

Consider GGCAUGAACAACAUUACCATT against BC052046, for which the z-score is inactive: 0.595.

Take CCUCAUGGCCAAUUUGCACTT against BC023181: the z-score was inactive: 1.13.

For “GGAUGUAUUUUGGAGAACGTT against 5730508B09Rik”, the z-score was inactive: -0.0281.

As for GCACAUGUCAGACACGGCATT against Hdc, the z-score was inactive: -0.185.

“CCAGAAGUAUAGGACGCACTT against 2310075M15Rik”: the z-score was inactive: -0.81.

GGCUUUCAGGUAUUAUAAGTT against Icmt: the z-score was inactive: 0.753.

Take “GGAGUUUCUAACUAAAUUCTT against 4932411N23Rik”: the z-score is inactive: 1.7.

As to CGGUGUACGAGUUAGAGAATT against Crybb3, the z-score was inactive: 0.762.

For GGAUCUUAGCAUGUCAACATT against Zfp330, the z-score was inactive: 1.07.

As to “GGAGCUGUCCAGGUUUAUUTT against 2400006A19Rik”, the z-score was inactive: -3.32.

Consider CCCAAGACUCGUACACGCATT against Ggn, for which the z-score was inactive: 1.7.

For GGCGAAAAGCCUUUUCCCUTT against Zic1, the z-score is inactive: 0.506.

Consider GGUCGGAGUACAGUUCAAATT against Mum1, for which the z-score was inactive: 0.377.

In the case of GCCUUGAUAAUGUACGGCATT against Blvra, the z-score is inactive: -0.193.

GCCCUGAGACCACGAUAUUTT against AF067063: the z-score was inactive: -0.377.

Consider GGAGCUGUGACUAGGAAUGTT against Abo, for which the z-score was inactive: -1.16.

In the case of “GCUGAAUUCUCCAACCAACTT against 1190002H23Rik”, the z-score was inactive: -0.487.

Turning to “GCGGUUUCUUCGAGAAACUTT against 9130404D08Rik”, the z-score is inactive: 0.66.

Take CGACAACCUCAACAACGUGTT against Tom1: the z-score is inactive: -0.364.

On to CCACAUGGCUAUUCACUAUTT against Spata7, for which the z-score is inactive: 1.06.

As to GGAAUGAAAAAGUUCUACATT against Dnajc10, the z-score is inactive: -1.71.

As for GGUGGAGUCUGAACUUAAUTT against Nfatc4, the z-score is inactive: -0.17.

In the case of GGCUUACCUGAGGAAUGCUTT against BC003479, the z-score was inactive: -0.626.

As for “GGCCCAAGGAUCAAUUUAUTT against 2700019D07Rik”, the z-score is inactive: 0.164.

As to GGCCUACUUGGAUGUGGACTT against Rtn3, the z-score is inactive: -0.343.

On to GCUCAGACAUGUUCUUACCTT against BC037527, for which the z-score was inactive: 0.547.

Regarding CCCACGAGGGAUAUAUCUGTT against Cd3d, the z-score is inactive: -1.16.

For the sequence “CCAAAGUAGAUGUGACCUATT against 2310015N21Rik”, the z-score is inactive: -0.897.

With GGACUGUCAGUGAUGACUCTT against Hes2, the z-score is inactive: 0.523.

Take GGGUAAUUUUAGCAGCGAGTT against Btbd9: the z-score is inactive: 0.0319.

For the sequence GGAAUUCCUUACCUUCUUATT against Cyp2c65, the z-score was inactive: -0.374.

As for “GGCUCUCAGUGCCAUCAUUTT against 2310004N11Rik”, the z-score is inactive: -2.69.

For GCAGUUGAAUAUCAGACUGTT against Obox5, the z-score is inactive: -2.38.

As to “GGCUUCUAAUCAGAUCAGCTT against D230037D09Rik”, the z-score was inactive: -0.177.

As to GCUCUUACAUAGAACUUUGTT against Tpbg, the z-score was inactive: -0.882.

GGUGGAGUUUCUGAAACAGTT against Supt16h: the z-score was inactive: -3.27.

As to GCACUUACCAGUAUGCGCUTT against Ppp1r16b, the z-score is inactive: 1.92.

Consider GCGCAAUAAUCAGACGGUUTT against Zhx2, for which the z-score is inactive: -2.08.

With CCUUUGAACCUCUAACUUUTT against Xpnpep1, the z-score is inactive: -0.177.

Take GGAGCCAGCUCUCAAUGAATT against Psme1: the z-score is inactive: -2.48.

Turning to GGAAAGUGGUGCAUGACUATT against Sfxn1, the z-score is inactive: 0.484.
